Values of other authors in article PMC7994622, “Eryptosis and Malaria: New Experimental Guidelines and Re-Evaluation of the Antimalarial Potential of Eryptosis Inducers” (Frontiers in Cellular and Infection Microbiology, 2021).
Structures can show the parent of a compound that is named as a salt.

Test system: P. falciparum-infected erythrocytes
Conditions: 10 μM, BinH strain, 2% hematocrit, 24 h, synchronized late stages; ref Bobbala et al., 2010b; cited from earlier work

CCCCc1oc2ccccc2c1C(=O)c1cc(I)c(OCCN(CC)CC)c(I)c1 [Amiodarone, amiodarone HCl]
PS exposure of P. falciparum-infected erythrocytes: increase PS exposure
